Source: ChEMBL document CHEMBL3988442, “University of Dundee, Small-Polar-MMV Screening Library” (2021).

Results are given as percent effect.
How 0% and 100% were set is not recorded. Most values in the screen are low, and negative values occur.
The compounds are a random part of those screened.
A dash means the value is not listed here; it may have been measured.

Mtb growth Cornell: 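Whole-cell assay for inhibitors of Mycobacterium tuberculosis growth, labelled Cornell in the record; the read-out is not stated. The concentration is filed as 10 mM, unlikely as a test dose, so the dose is not known. The record gives no direction; compounds strong in two other growth screens of this library score well above the rest, so higher reads as stronger inhibition. Of about 53,000 compounds tested this way, about 900 (1.7%) reached 50% or more in at least one test.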
Mtb heat-shock: 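Assay on Mycobacterium tuberculosis, filed only as a heat shock assay from Cornell; the read-out is not stated. The concentration is filed as 10 mM, unlikely as a test dose, so the dose is not known. Higher reads as stronger inhibition (inferred: compounds with an IC50 in retests scored well above the rest). About 69,000 compounds were tested under these conditions; 1.4% (about 930) showed 50% or more at least once.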

SMILES | Mtb growth Cornell | Mtb heat-shock
COc1ccccc1OCCNCCn1cccn1 | 4.031 | -4.408
COc1ccc(N2CCC(N3CCOC(C(F)(F)F)C3)CC2)cc1 (centres undefined) | 45.64 | -4.744
N#Cc1cccc(OCCN2CCNC(=O)C2c2cccs2)c1 (centres undefined) | 15.41 | -20.57
O=C(c1cc(C2CCCN(Cc3ccccn3)C2)no1)N1CCCC1 (centres undefined) | 14.05 | 7.787
COC(=O)c1ccc(NC(=O)CNCc2ccco2)cc1 | 13.46 | 20.17
CC(=O)N1CCC(c2ccnc(Nc3cncnc3)n2)C1 (centres undefined) | - | 2.621
CN1CCCC2(CC1)CCN(C(=O)CCc1ccccc1F)CC2 | 34.12 | -10.57
CC(Cn1cccn1)NC(=O)CCc1nc(C(C)(C)C)no1 (centres undefined) | - | 5.879
Cc1cccc(C2(O)CCN(Cc3ccccc3N3CCCC3)CC2)c1 | 33.4 | 106
CSCC(=O)N1CCCN(c2ccccc2C)CC1 | 19.04 | -4.772
c1ncn(CC2CCCCN2Cc2csc(-c3ccsc3)n2)n1 (centres undefined) | - | -9.2
COC(=O)CCNC(=O)c1ccc(NC(=O)N(C)CC(C)(C)C)cc1 | -21.38 | 26.68
Cc1cc(=O)n2c(n1)SCC2CC(=O)NCc1cc(-c2ccco2)on1 (centres undefined) | 9.939 | 2.786
CCc1noc(CN2CCN(C(=O)Cc3ccc(F)cc3)CC2)n1 | -14.35 | 10.4
COCCc1noc(CN(C)c2cc(C)ncn2)n1 | - | -16.07
CN(C)c1nccc(CNC(=O)NCc2ccco2)n1 | -1.647 | 9.641
Nc1ccnc(N2C[C@H](O)[C@@H](N3CCN(c4ccccn4)CC3)C2)n1 | 13.32 | -29.34
[H][C@]12CC[C@]([H])(CN(C(=O)c3ccccc3)C1)N(S(=O)(=O)c1cccnc1)C2 | -1.513 | -19.46
CC(c1ncc(C(C)(C)C)o1)N1CCN(Cc2ccco2)CC1 (centres undefined) | 20.69 | 0.6205
[H][C@]12CC[C@]([H])(CN(Cc3cccnc3N)C1)N(CC=C(C)C)C2=O | 8.712 | 105.7
O=c1cc(CN(CCO)C2CC2)nc2ccc(Br)cn12 | -11.66 | -1.73
O=C(CN1C(=O)c2ccccc2CS1(=O)=O)c1ccc(Cl)cc1 | -10.54 | -5.194
O=C(N1CCCC1)N1CCN(c2ccc(Cl)nn2)C(=O)C1 | - | -30.4
O=C(CSC1CCCC1)N1CCN(C(=O)C2CC2c2cccs2)CC1 (centres undefined) | 19.24 | -15.96
COc1ccc(S(=O)(=O)NCC(C)(O)c2cccs2)cc1Cl (centres undefined) | -38.01 | 17.34
Cn1nc(C2CCNC2)c2c(C(=O)NC3CC3)cc(C3CC3)nc21 (centres undefined) | - | -29.49
O=C(c1ccncc1F)N1CCN(CC2CC2)c2ncccc2C1 | - | -11.06
CCCn1cc(C(=O)NC(C(=O)O)c2ccccc2C(F)(F)F)c(C)n1 (centres undefined) | 8.623 | 15.09
CC[C@@H](CO)Nc1nccc(-c2cnc3sc(C)cn3c2=O)n1 | -37.54 | -23.8
O=C(O)C(F)(F)F.O=C(O)C(F)(F)F.[H][C@]12CCN(C(=O)c3ccncc3)C[C@@]1([H])OCCN(C1CCOCC1)C2 | 5.437 | 7.278
Cc1cccc(NC(=O)CN(C)C(=O)c2ccc(OC(C)C)nc2)n1 | 20.01 | -0.3526
O=C(NCc1ccnc(OCC(F)(F)F)c1)NCC1CCCO1 (centres undefined) | 19.07 | 12.33
O=C(c1n[nH]c(=O)c2ccccc12)N1CCCCC1c1ccn[nH]1 (centres undefined) | -33.63 | 3.975
Cc1cnc(CNS(=O)(=O)CCC2CCCO2)o1 (centres undefined) | - | -6.391
CCN1CCOCC12CCN(C(=O)Cc1cccs1)CC2.O=C(O)C(F)(F)F | 5.68 | 8.303
CCC(C)(CC(=O)O)NC(=O)Cc1ccccc1F (centres undefined) | -11.18 | -8.116
Cc1cnccc1CN1CC[C@H](Oc2cccc(F)c2)[C@@](C)(O)C1 | - | 101.8
Cc1cccc(C)c1OCCNC(=O)C[S+]([O-])C1CCCC1 (centres undefined) | 5.13 | -7.349
COc1c(CNCCc2c[nH]c3ccccc23)c(C)nn1C | -21.71 | -17.46
Cn1c(=O)n(C)c2cc(NS(=O)(=O)Cc3ccccc3)ccc21 | 30.42 | 4.738
[H][C@@]12C[C@@H](c3nnc(C)[nH]3)O[C@]1([H])CN(C(=O)C1CC1)C2 | 19.24 | -14.24
CS(=O)(=O)c1nnc(NC(=O)CCc2ccc(Cl)s2)[nH]1 | 12.67 | -15.56
Cc1nc(C2CCCN(C(C)C)C2)sc1Br (centres undefined) | -4.102 | 5.405
CCOC(=O)c1sc2ccsc2c1CN.Cl | 16.43 | 6.355
COCC(=O)N(Cc1ccc2cc[nH]c2c1)C1CC1 | 57.03 | -0.02015
[H][C@@]12CCN(C(=O)c3ccoc3)CC[C@@]1([H])N(c1cccnc1)CCO2 | 11.38 | -3.359
CN(C)S(=O)(=O)N1CCC(Oc2ccccn2)CC1 | 9.951 | 2.228
CC(=O)NCCNC(=O)c1sc(-c2ccc(Cl)s2)nc1C | 3.063 | 19.72
Cn1cc(CNCC2(O)CCCCC2)c(-c2cccnc2)n1 | - | 4.535
O=C(Cc1ccc2c(c1)OCO2)N1CCN(c2cnccn2)CC1 | - | -18.09

Once more, the final 6:

SMILES,Mtb growth Cornell,Mtb heat-shock
COCC(=O)N(Cc1ccc2cc[nH]c2c1)C1CC1,57.03,-0.02015
[H][C@@]12CCN(C(=O)c3ccoc3)CC[C@@]1([H])N(c1cccnc1)CCO2,11.38,-3.359
CN(C)S(=O)(=O)N1CCC(Oc2ccccn2)CC1,9.951,2.228
CC(=O)NCCNC(=O)c1sc(-c2ccc(Cl)s2)nc1C,3.063,19.72
Cn1cc(CNCC2(O)CCCCC2)c(-c2cccnc2)n1,-,4.535
O=C(Cc1ccc2c(c1)OCO2)N1CCN(c2cnccn2)CC1,-,-18.09